Source: US20070218555A1, “Anti-Microbial Activity Of Biologically Stabilized Silver Nano Particles” (priority 2004, published 2007)
Some of these results come from one statement about several compounds together.

System: Pseudomonas aeruginosa MDR strain
Experiment: Interaction of drugs with silver nano particles, checkerboard macrodilution (FICI)
Assay type: cell-based
Conditions: drug in combination with biologically stabilized silver nano particles
Experimental: Interaction of drugs with biologically stabilized silver nano particles. A two-dimensional checkerboard macrodilution technique was used to characterize interactions between biologically stabilized silver nano particles and drug (viz. Gentamicin, Penicillin, Cefotaxime, Ceptazidime, Kanamycin, Vancomycin). six experiments were performed for Pseudomonas aeruginosa MDR strain described above. Inoculum was prepared similarly to those for susceptibility testing. Individual drug with biologically stabilized silver nano particles were diluted in serial twofold dilutions, and concentrations ranged from four fold below to four folds above the MIC. The highest dilution of the drug combination with biologically stabilized silver nano particles that inhibits the visible growth of the test organism was regarded as the fractional inhibitory concentration (FIC). The fractional inhibitory concentration (FIC) index (FICI) was used to define the interaction between the two drugs. The FICI is the sum of the FICs of each of the drugs. The FIC was calculated as follows: MIC of the drug tested in combination/MIC of the drug tested alone. The interaction was defined as synergistic if the FICI was […], as additive if the FICI was >0.5 to 1.0, as indifferent if the FICI was >1.0 to 2.0, and as antagonistic if the FICI was >2.0.

## CC1(C)S[C@@H]2[C@H](NC(=O)[C@H](N)c3ccccc3)C(=O)N2[C@H]1C(=O)O [ampicillin]
  interaction by mean FICI: indifferent (indifferent if the FICI was >1.0 to 2.0)

## CO/N=C(\C(=O)N[C@@H]1C(=O)N2C(C(=O)O)=C(COC(C)=O)CS[C@H]12)c1csc(N)n1 [cefotaxime]
  interaction by mean FICI: synergistic (synergistic if the FICI was 0.5)

## NC[C@H]1O[C@H](O[C@H]2[C@H](O)[C@@H](O[C@H]3O[C@H](CO)[C@@H](O)[C@H](N)[C@H]3O)[C@H](N)C[C@@H]2N)[C@H](O)[C@@H](O)[C@@H]1O [kanamycin]
  interaction by mean FICI: antagonistic (antagonistic if the FICI was >2.0)

## gentamicin
  interaction by mean FICI: indifferent (indifferent if the FICI was >1.0 to 2.0)
